Measured data: PubChem BioAssay AID504784 (Drosophila RNAi Screening Center, 2011)

Purpose: 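Search for regulators of lipid droplet storage in oleate-fed fly cells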 (primary screen)
Cell system: Drosophila Kc167 embryonic cells
Knock-down reagent: long dsRNA against Drosophila genes, about 250 ng dsRNA per well
Duration: 4 days
Treatment: cells fed 400 µM oleic acid bound to BSA
Detection: 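Cells imaged and segmented; ratio of lipid droplet area to nuclear area, log-transformed, then normalised as a B-score over the screen; higher means more stored lipid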
Scale: droplet/nuclear area B-score: higher = more stored lipid (overstorage)
In all, the deposit lists about 17,000 reagents; shown is a random part of those that have a named target and a result. 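Each column is one replicate's B-score; the combined score over replicates was not deposited, so single values may mislead.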 The numbers tell different reagents against one gene apart.

no.	gene	dsRNA no.	droplet/nuclear area B-score, replicate 1	droplet/nuclear area B-score, replicate 2	droplet/nuclear area B-score, replicate 3
1	lncRNA:CR32368	1	0.64	1.48	
2	rdgA	1	-0.462	-0.691	
3	rdgA	2	-0.723	0.000189	
4	rdgA	3	-0.614	-0.0723	-2.47
5	robl37BC	1	0.696	0.86	
6	insv	1	-0.0302	-2.85	
7	CG7309	1	-1.16	-0.181	
8	Smyd4-3	1	-0.349	-2.34	
9	kn	1	0.52	0.415	
10	kn	2	-0.0282	3.32	
11	kn	3	-1.86	-0.0209	
12	kn	4	0.387	-0.123	
13	CG18682 (retired record)	1	0.0758		
14	CG18682 (retired record)	2	-0.439	0.00638	0.54
15	CG31928	1	-1.11	-0.353	
16	HPS4	1	0.233	0.0178	
17	csw	1	2.47	1.61	
18	csw	2	-1.96	-1.67	
19	Hsp67Bc	1	0.236	0.233	
20	p38b	1	-1.73	-0.317	
21	CG11267	1	0.737	0.262	
22	kek4	1	-0.202	0.103	
23	PK2-R1	1	-0.229	0.0239	
24	CG3769	1	-2.2	1.05	
25	CG18507	1	0.245	-2.2	
26	CG18507	2	0.606	0.221	
27	RNF220	1	0.667	-0.235	
28	CG4438	1	1.49	-1.12	
29	Incenp	1	0.636	0.805	
30	Incenp	2	0.23	0.515	
31	CG6865	1	1.64	-0.343	
32	CG14384	1	0.689	-0.00732	
33	CG42561	1	0.0554	1.11	
34	CG6738	1	-0.339	0.569	

Reformatted: entries from further up
gene,dsRNA no.,"droplet/nuclear area B-score, replicate 1","droplet/nuclear area B-score, replicate 2","droplet/nuclear area B-score, replicate 3"
CG18507,2,0.606,0.221,
RNF220,1,0.667,-0.235,
